Among all 310,000 compounds or so, about 17,000 (5.5%) were called active. The shares of active, inactive and inconclusive entries below differ from those in the screen. Calls come from the whole dose curve; as a rule, active = well fitted inhibition curve with a large enough effect; inconclusive = small, poorly fitted or top-dose-only effect, or effect the other way; inactive = no such curve, though single readings can be large or run the other way. Potencies of inconclusive entries are doubtful fits and often do not repeat.
Each molecule was assayed against Nuclear receptor ROR-gamma (Mus musculus) (UniProt P51450) (assay: qHTS for inhibitors of ROR gamma transcriptional activity). Details: Drosophila S2 Gal4-RORgamma UAS-luciferase reporter, 20 h; activity change, negative = inhibition: at 53.6 µM (top of the series).
Procedure, shortened: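 In this cell-based reporter format, copper sulfate (700 uM final) drives Gal4–ROR gamma fusion expression from a metallothionein promoter in Drosophila Schneider cells; compounds preincubated 1 hr, reporter read after 20 hr at ambient temperature.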
% is set by controls: 0 for no effect and ±100 for the full control effect; potency is the fitted concentration of half-maximal effect.
Note: nearly all actives have a fitted effect of over 60% in size.

The chains behind the UniProt entries cited, without tags or fusion partners. Where a name states a change or a piece, a line headed by the entry shows the natural chain unless it says otherwise.
UniProt P51450: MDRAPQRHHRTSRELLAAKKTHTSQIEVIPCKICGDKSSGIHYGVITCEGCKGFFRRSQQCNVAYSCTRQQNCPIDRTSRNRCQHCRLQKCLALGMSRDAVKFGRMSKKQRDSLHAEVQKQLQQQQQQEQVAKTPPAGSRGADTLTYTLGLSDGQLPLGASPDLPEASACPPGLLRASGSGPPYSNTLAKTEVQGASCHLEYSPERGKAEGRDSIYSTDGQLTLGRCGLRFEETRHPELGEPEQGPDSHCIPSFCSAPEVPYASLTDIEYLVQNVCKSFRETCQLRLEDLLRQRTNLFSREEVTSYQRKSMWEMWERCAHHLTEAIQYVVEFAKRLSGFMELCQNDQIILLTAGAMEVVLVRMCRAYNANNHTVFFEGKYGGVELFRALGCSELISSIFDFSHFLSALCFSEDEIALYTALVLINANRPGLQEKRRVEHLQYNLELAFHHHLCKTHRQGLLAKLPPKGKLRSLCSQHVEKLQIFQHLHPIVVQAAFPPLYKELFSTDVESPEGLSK

Potency, inconclusive:
CC(=O)c1c(N2CCOCC2)nc2ccc(Cl)cc2c1-c1ccccc1 28.2 µM [activator, single point]
N=C1SC(CC(=O)Nc2ccc([N+](=O)[O-])cc2)C(=O)N1c1ccccc1 (configuration not stated) 35.5 µM [activator, single point]
CCc1ccccc1N(CC(=O)NCCc1ccccc1)C(=O)CCC(=O)Nc1ccccn1 20 µM [activator, single point]
Cn1cc([N+](=O)[O-])c(C(=O)Nc2cc(Oc3ccccc3)cc([N+](=O)[O-])c2)n1 11.2 µM [activator, single point]
COC(=O)[C@@H]1C[C@H]1[C@@H](NS(=O)(=O)c1ccc2ccccc2c1)c1ccccc1 15.8 µM [activator, single point]
O=C(Nc1ccc2c(c1)OCO2)c1c(F)cccc1F 2.24 µM [activator, full curve, poor fit]
O=C(NCCN1C(=O)S/C(=C\c2ccccc2F)C1=O)C1CCN(S(=O)(=O)c2cccs2)CC1 28.2 µM [activator, single point]
C=CCn1c(SCc2ccc(Cl)cc2)nc2c1c(=O)[nH]c(=O)n2C 15.8 µM [activator, single point]
N#C/C(C(=O)c1ccccc1)=C1/CCCCCN1 2.24 µM [activator, partial curve]
Cc1cc(C)n2nc(CNS(=O)(=O)c3c(F)c(F)c(F)c(F)c3F)nc2n1 22.4 µM [inhibitor, single point]
CCN(CC)C(=O)CSc1nc2c(sc(=S)n2-c2ccccc2OC)c(=O)n1-c1ccccc1 28.2 µM [activator, partial curve]
CCOC(=O)c1ccc(-n2c(C)nc3c(cnn3-c3ccccc3Cl)c2=O)cc1 11.2 µM [activator, single point]
O=C(O)c1nn(CC(=O)N2CCN(c3ncc(C(F)(F)F)cc3Cl)CC2)c(=O)c2ccccc12 2 µM [activator, partial curve, poor fit]
Fc1ccc(NC(=S)Nc2ccc(Br)cc2)cc1 25.1 µM [inhibitor, single point]
COc1cc(NC(=O)c2cccs2)cc(OC)c1 6.31 µM [activator, single point]
Cc1ccc(NC(=O)CCCNC(=O)c2ccc(Cl)cc2)nc1 35.5 µM [activator, single point]
Cc1ccc(S(=O)(=O)NCCCN2CCOCC2)cc1C 20 µM [inhibitor, single point]
CCOC(=O)c1c(C)[nH]c(C)c1C(=O)CSc1nc2ccccc2n1CCOC 22.4 µM [activator, partial curve]
O=c1[nH]c2cc3c(cc2cc1C(c1nnnn1CC1CCCO1)N1CCCCCC1)OCO3 (configuration not stated) 35.5 µM [inhibitor, single point]
CCOC(=O)Cc1ccc(NC(=O)c2cccc([N+](=O)[O-])c2)cc1 12.6 µM [activator, single point]
COc1ccc(NC(=O)c2cc3ccccn3n2)cc1 31.6 µM [inhibitor, single point]
C[C@H]1C[C@H]2[C@@H]3CCC4=CC(=O)C=C[C@]4(C)[C@@]3(Cl)[C@@H](O)C[C@]2(C)[C@@]1(O)C(=O)CO 35.5 µM [inhibitor, single point]
Cc1ccc2cc(CN(CCO)Cc3nnnn3Cc3ccc(F)cc3)c(=O)[nH]c2c1 35.5 µM [activator, single point]
C/C(CC1CC(C)(C)OC1=O)=N\NC(N)=S (configuration not stated) 10 µM [inhibitor, partial curve, poor fit]

Molecules above that have a nitro group on carbon, in the order listed:
Potency, inconclusive:
N=C1SC(CC(=O)Nc2ccc([N+](=O)[O-])cc2)C(=O)N1c1ccccc1 (configuration not stated) 35.5 µM [activator, single point]
Cn1cc([N+](=O)[O-])c(C(=O)Nc2cc(Oc3ccccc3)cc([N+](=O)[O-])c2)n1 11.2 µM [activator, single point]
CCOC(=O)Cc1ccc(NC(=O)c2cccc([N+](=O)[O-])c2)cc1 12.6 µM [activator, single point]

Next part:

Potency, active:
Cc1nc([N+](=O)[O-])c(Br)n1Cc1ccc(Cl)c(Cl)c1 7.08 µM
O=C1C(Cc2ccccc2)NC(=S)N1c1ccccc1 (configuration not stated) 11.2 µM
CCOC(=O)CNC(=O)CSc1nnc(NC(=O)c2ccc(C)cc2)s1 5.62 µM
Cc1nc(SC2CC(=O)N(c3ccccc3)C2=O)n[nH]1 (configuration not stated) 4.47 µM
Cc1ccccc1NC(=O)c1nc(S(C)(=O)=O)ncc1Cl 6.31 µM
CCCCNC(=S)N=Nc1c(O)[nH]c2ccccc12 2.24 µM
CCCNCC(O)Cn1c2ccccc2n2c(=O)cc(C)c(C#N)c12 (configuration not stated) 0.708 µM
NC(=S)N/N=C/c1ccc(-c2cccc([N+](=O)[O-])c2)o1 1 µM

Activity change, negative = inhibition, inactive:
COC(=O)C1SCC2C(=O)N(Cc3ccc(Cl)cc3)CC(=O)N21 (configuration not stated) -9.07%
Cc1cnnn1-c1ccc([N+](=O)[O-])cc1 -19.7%
Cc1ccc(NC(=O)Nc2ccnc(-c3cccnc3)n2)cc1 22.5%
O=C1Nc2ccccc2N(O)N1c1cc(-c2ccc(Cl)cc2)[nH]n1 0.535%
O=C(Nc1c2c(nn1-c1cccc(Cl)c1)CS(=O)(=O)C2)c1ccc2c(c1)OCO2 32.1%
CCc1nnc(NS(=O)(=O)c2ccc(NC(=O)c3ccc(Cl)cc3)cc2)s1 8.52%
Clc1ccc(CSC2=NCCCN2)cc1Cl 3.9%
CC(=O)Nc1ccc(C2=NNC(=Nc3cccc(S(=O)(=O)N(C)C)c3)SC2)cc1 -16.4%
CCCCCC/C=C/c1ccc([C@H]2[C@H]3C=CC[C@@H](C)[C@@H]3C(=O)N2Cc2ccccc2)c(F)c1 9.31%
CC1CC(C)CN(c2ncnc3c2cnn3C)C1 (configuration not stated) -14.3%
Cc1cccc(/C(N)=N/OC(=O)N2CCOCC2)c1 -17.5%
COc1ccc(S(=O)(=O)NCCc2cc3ccc(C)c(C)c3[nH]c2=O)cc1 9.72%
COc1ccc(-c2cc(C(=O)Nc3c(C)nn(Cc4ccc(Cl)cc4)c3C)no2)cc1 -0.346%
C/C=C/C(=O)Nc1cccc(C(F)(F)F)c1 26.5%
Cc1ccc(C(=O)O)cc1NC(=O)c1ccc2c(c1)C(=O)N(c1ccc([N+](=O)[O-])cc1)C2=O -6.89%

From PubChem BioAssay AID2551 (National Center for Advancing Translational Sciences (NCATS), 2010)
